# Test results from the supplement of paper PMC9135407.
# “And” between values parts separate entries of the source, which are not always exact repeats. Equal values may be shown once. Where a name gives a salt, the structure may show the parent alone. ± gives the standard deviation of the averaged measurements. The list shows a part of the results. Part of the spread comes from offsets between plates or batches.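 Assay uses culture-activated primary human stellate myofibroblasts; lipid droplet recovery indicates inactivation. Measured: proportion of Hoechst-counted cells over a plate-specific Bodipy cutoff, duplicate wells, DMSO and nortriptyline as per-plate negative and positive controls. A hit scores, control-normalized, above the plate's top-tenth-percentile nortriptyline wells or ranks among its three best wells. Final well concentrations not reported.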
# System: primary human hepatic stellate cells (donor 1)
# Experiment: percent Bodipy-positive cells; higher = more lipid droplet accumulation
# Settings: 48 h
# [1] = library stock concentration: 10 mM
# [2] = library stock concentration: 3.33 mM
# [3] = library stock concentration: 400 uM
# [4] = library stock concentration: 2 mM
smiles,measurement,setting,value
CCN(CC)CCOC(=O)C(c1ccccc1)c1ccccc1 [Adiphenine hydrochloride],percent Bodipy-positive cells,,31.6 ± 2%
same,percent Bodipy-positive cells,library stock concentration: 5.7 mM,18.7 ± 0.38%
same,percent Bodipy-positive cells,[1],47.6 ± 4.3%
CCN(CC)CCOC(=O)C(c1ccccc1)c1ccccc1 [Adiphenine HCl],percent Bodipy-positive cells,[2],9.97 ± 0.49%
same,percent Bodipy-positive cells,[1],20.4 ± 7.9%
CC(C)(C)CC(C)(C)c1ccc(O)c(Cc2ccc(Cl)cc2Cl)c1 [Clofoctol],percent Bodipy-positive cells,[1],37 ± 1.2%
COc1ccc2nc3n[nH]c(C)c3c(NCCOCCO)c2c1,percent Bodipy-positive cells,library stock concentration: 80 uM,16.3 ± 6.9%
same,percent Bodipy-positive cells,[3],11.8 ± 5.6%
same,percent Bodipy-positive cells,[4],15.3 ± 1.3%
same,percent Bodipy-positive cells,[2],33.3 ± 6.7%
same,percent Bodipy-positive cells,[1],21.1 ± 2.4%
Cc1ccc([N+](=O)[O-])cc1S(=O)(=O)N(C)/N=C/c1cnc2ccc(Br)cn12,percent Bodipy-positive cells,[3],67.3 ± 14%
same,percent Bodipy-positive cells,[4],53.6 ± 8.2%
same,percent Bodipy-positive cells,[2],70.8 ± 10%
same,percent Bodipy-positive cells,[1],63.7% and 54.3%
COc1cc(-c2ccc(=O)[nH]n2)ccc1OC(F)F [Zardaverine],percent Bodipy-positive cells,,37.3 ± 4.3%
same,percent Bodipy-positive cells,library stock concentration: 7.5 mM,32.2 ± 12%
same,percent Bodipy-positive cells,[1],34.5 ± 4.5%
COc1cc(-c2ccc(=O)[nH]n2)ccc1OC(F)F,percent Bodipy-positive cells,[1],26.1 ± 3.6%
CCCCC[C@@](C)(O)/C=C/[C@@H]1[C@@H](C/C=C\CCCC(=O)OC)[C@@H](O)C[C@H]1O [15(R)-15-methyl Prostaglandin F2.alpha. methyl ester],percent Bodipy-positive cells,library stock concentration: 1 mM,20.2 ± 2.4%
O=c1cc(-c2ccc(O)cc2)oc2c([C@@H]3O[C@H](CO)[C@@H](O)[C@H](O)[C@H]3O)c(O)cc(O)c12 [Vitexin],percent Bodipy-positive cells,,8.52 ± 0.42%
CC[N+](CC)(CC)CC(=O)Nc1c(C)cccc1C [Lidocaine N-ethyl bromide quaternary salt],percent Bodipy-positive cells,[1],22.6 ± 2.3%
CC[N+](CC)(CC)CC(=O)Nc1c(C)cccc1C [QX 314 bromide],percent Bodipy-positive cells,[1],9.77 ± 5.9%
CC[N+](CC)(CC)CC(=O)Nc1c(C)cccc1C [QX 314 chloride],percent Bodipy-positive cells,[1],8.61 ± 0.58%
c1ccc(COCCCc2c[nH]cn2)cc1 [Proxyfan Oxalate],percent Bodipy-positive cells,[1],7.58 ± 1.3%
CCCCNc1c(C(=O)OCC)c(C)nc2c1cnn2CC [Tracazolate hydrochloride],percent Bodipy-positive cells,,7.99 ± 2%
same,percent Bodipy-positive cells,[1],12.9 ± 9.2%
CCCCNc1c(C(=O)OCC)c(C)nc2c1cnn2CC [Tracazolate],percent Bodipy-positive cells,[1],54.4 ± 8.3%
CNCCCC12CCC(c3ccccc31)c1ccccc12.Cl [Maprotiline hydrochloride],percent Bodipy-positive cells,library stock concentration: 6.4 mM,63.9 ± 2.2%
same,percent Bodipy-positive cells,[1],87.3% and 100%
COCCOc1cc2ncnc(Cl)c2cc1OCCOC,percent Bodipy-positive cells,[1],21.3 ± 6%
CCCCC1(COC(=O)CCC(=O)O)C(=O)N(c2ccccc2)N(c2ccccc2)C1=O [Suxibuzone],percent Bodipy-positive cells,,7.72 ± 1.4%
same,percent Bodipy-positive cells,[1],38.7 ± 8.2%
COc1cc(NC(C)CCCN)c2ncccc2c1 (centres undefined) [Primaquine phosphate],percent Bodipy-positive cells,library stock concentration: 7.7 mM,8.3 ± 1.6%
COc1cc(NC(C)CCCN)c2ncccc2c1 (centres undefined) [Primaquine Diphosphate],percent Bodipy-positive cells,[2],8.62 ± 0.3%
COc1cc(NC(C)CCCN)c2ncccc2c1 (centres undefined) [Primaquine diphosphate],percent Bodipy-positive cells,,27.4 ± 4.5%
same,percent Bodipy-positive cells,library stock concentration: 4.4 mM,18.9 ± 1.5%
same,percent Bodipy-positive cells,[1],18.4 ± 0.39%
O=c1[nH]c(=O)n([C@H]2C[C@H](O)[C@@H](CO)O2)cc1Br [5-Bromo-2'-deoxyuridine],percent Bodipy-positive cells,[1],61.1 ± 4.3%

# Quoted at random: 2 entries already listed
smiles,measurement,setting,value
CNCCCC12CCC(c3ccccc31)c1ccccc12.Cl [Maprotiline hydrochloride],percent Bodipy-positive cells,library stock concentration: 6.4 mM,63.9 ± 2.2%
CCCCC[C@@](C)(O)/C=C/[C@@H]1[C@@H](C/C=C\CCCC(=O)OC)[C@@H](O)C[C@H]1O [15(R)-15-methyl Prostaglandin F2.alpha. methyl ester],percent Bodipy-positive cells,library stock concentration: 1 mM,20.2 ± 2.4%
